Test results published in US8039586B1, “Cerebral organic anion transporter and its gene” (J-Pharma Co., Ltd., priority 1998, dated 2011).

What was measured:
rat OAT3 (rk1411) = molecular target: T1, rat OAT3 (rk1411) (Rattus norvegicus, UniProt Q9R1U7); experiment: Inhibition of 3H-estrone sulfate uptake in oocyte injected with rk1411 cRNA; type: cell-based; details: 1 mM unlabeled compound; Xenopus oocyte; FIG. 3
T1 construct: cRNA (RNA complementary to cDNA) was prepared in vitro from the plasmid carrying the clone (rk1411); expressed in transfected cells; host or cells: Xenopus oocytes injected with rk1411 cRNA
T1 sequence (Q9R1U7 1-536): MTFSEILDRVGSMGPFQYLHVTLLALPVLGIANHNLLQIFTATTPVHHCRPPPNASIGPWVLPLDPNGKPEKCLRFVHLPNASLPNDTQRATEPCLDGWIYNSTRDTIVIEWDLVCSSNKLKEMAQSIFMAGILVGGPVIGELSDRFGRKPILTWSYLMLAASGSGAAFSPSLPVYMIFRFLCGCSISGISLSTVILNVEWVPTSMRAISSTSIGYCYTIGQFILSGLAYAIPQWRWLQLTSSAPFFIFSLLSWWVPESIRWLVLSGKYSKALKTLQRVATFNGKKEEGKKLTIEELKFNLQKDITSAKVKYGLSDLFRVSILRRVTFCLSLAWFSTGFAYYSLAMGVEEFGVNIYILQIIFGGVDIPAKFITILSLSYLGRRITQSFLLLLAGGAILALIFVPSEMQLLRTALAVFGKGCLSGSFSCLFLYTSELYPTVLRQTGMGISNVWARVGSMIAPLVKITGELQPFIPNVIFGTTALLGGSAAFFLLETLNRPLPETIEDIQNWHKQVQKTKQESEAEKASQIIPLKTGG

hOAT3 = molecular target: T2, hOAT3 (Homo sapiens, UniProt Q8TCC7, D366H/K271E); experiment: Inhibition of 3H-estrone sulfate uptake in oocyte injected with hOAT3 cRNA; type: cell-based; parameters: cRNA (RNA complementary to cDNA) was prepared in vitro from the plasmid comprising the hOAT3 recovered above; expressed in transfected cells; host or cells: Xenopus oocytes injected with hOAT3 cRNA; details: 50 nM 3H-estrone sulfate; non-radiolabeled compound at 500 μM or the concentration shown in FIG. 19; one hour
T2 sequence (Q8TCC7 1-542 K271E/D366H): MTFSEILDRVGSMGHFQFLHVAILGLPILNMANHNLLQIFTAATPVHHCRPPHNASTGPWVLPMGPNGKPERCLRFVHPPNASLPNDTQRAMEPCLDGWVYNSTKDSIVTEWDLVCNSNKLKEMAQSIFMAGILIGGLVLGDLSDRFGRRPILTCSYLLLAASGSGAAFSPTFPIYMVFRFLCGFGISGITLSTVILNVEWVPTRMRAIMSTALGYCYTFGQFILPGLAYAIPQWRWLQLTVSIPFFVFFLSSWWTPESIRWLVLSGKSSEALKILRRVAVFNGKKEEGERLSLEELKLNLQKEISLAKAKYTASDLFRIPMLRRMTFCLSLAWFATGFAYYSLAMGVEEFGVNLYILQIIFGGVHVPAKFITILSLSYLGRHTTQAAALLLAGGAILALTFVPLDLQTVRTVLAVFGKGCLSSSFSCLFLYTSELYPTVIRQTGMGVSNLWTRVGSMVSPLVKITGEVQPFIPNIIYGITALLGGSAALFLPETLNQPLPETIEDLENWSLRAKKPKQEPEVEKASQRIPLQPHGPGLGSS

With NS(=O)(=O)c1cc(C(=O)O)c(NCc2ccco2)cc1Cl [furosemide] the “inhibition of 3H-estrone sulfate transport with rk1411” value (rat OAT3 (rk1411)) was “significantly inhibited” and the “inhibition of the transport of 3H-estrone sulfate with hOAT3” value (hOAT3) was “significantly inhibited”.
